From PubChem BioAssay AID2685 (National Center for Advancing Translational Sciences (NCATS), 2010)
This is one part of the list. The main result of the screen is listed elsewhere. These columns were measured beside it and carry no call. The list favours compounds with an active or inconclusive main result. Words in brackets tell the shape of the fitted curve; partial curves, single points and poor fits give uncertain potencies.

Assay: qHTS Assay for Lipid Storage Modulators in Drosophila S3 Cells;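 as to cell number change: cells counted by Cell Tracker Red CMTPX staining in the red channel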
Details: BODIPY lipid droplet fluorescence, 18-24 h; for cell number change: measured here: cell count max response, cells fed with added oleic acid
In short: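 Laser-scanning cytometry quantifies lipid droplet accumulation (500–530 nm total intensity; droplet/cell object ratio) in oleic acid-fed (400 uM added) Drosophila S3 cells treated with a concentration series. 20 uM Triacsin C defined 100% inhibition.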

[1] = measured here: lipid fluorescence (Fed channel) AC50, cells fed with added oleic acid
[2] = measured here: cell number channel AC50, cells fed with added oleic acid

Compound	AC50 [1]	cell number change	AC50 [2]
Cc1ccc(OCc2nnc(NC(=O)OCC(C)C)s2)cc1	20.6 µM [falling, partial curve]		
O=C1[C@@H]2C(c3ccccc3Cl)=NO[C@@H]2C(=O)N1Cc1ccccc1		-67.5%	20.6 µM [falling, single point]
O=C(NCC(c1ccco1)N1CCN(c2ccccc2)CC1)C(=O)NC1CCCCC1 (stereo not given)	0.517 µM [rising, full curve]	28.1%	0.517 µM [rising, full curve, poor fit]
COC(=O)c1[nH]c2cc(OC)c(OC)cc2c1NC(=O)Oc1ccccc1	29.1 µM [falling, single point]	-20.8%	
CN(C(=O)COC(=O)C1CCN(S(=O)(=O)c2cccs2)CC1)C1CCS(=O)(=O)C1 (stereo not given)		-76.3%	32.6 µM [falling, partial curve, poor fit]
C/C=C(/C)C(=O)O[C@@H]1c2cc3c(c4c2[C@@]2(CO4)C(=O)C(OC)=C(OC)C=C2C[C@@H](C)[C@H]1C)OCO3	13 µM [falling, partial curve]	-42.7%	14.6 µM [falling, partial curve, poor fit]
Cc1ccc(N=Cc2cc(Cl)cc(Cl)c2O)nc1		-20.1%	3.26 µM [falling, single point]
CC1CCCCC12NC(=O)N(CC(=O)N1CCc3ccccc31)C2=O (stereo not given)	6.51 µM [falling, single point]	4.76%	6.51 µM [falling, single point]
Cc1c(O)ccc(-c2[nH]ncc2-c2nc3ccccc3s2)c1O	3.26 µM [rising, partial curve]	14.1%	0.92 µM [rising, partial curve]
COc1cc(OC)cc(C(=O)N2CCC(C(=O)Nc3ccc4c(c3)OCCO4)CC2)c1		35.9%	8.2 µM [rising, partial curve, poor fit]
Cn1c(-c2ccc(F)cc2)cnc1SCC(=O)N1CCCc2ccccc21		17.1%	
Cc1c(CN2CCC(C)CC2)c(=O)n(-c2ccccc2)n1C	0.517 µM [falling, full curve, poor fit]	-17.5%	
Cc1ccccc1-c1nnc(SCC(=O)Nc2ccc3c(c2)OCCO3)n1N	0.103 µM [falling, full curve, poor fit]	-1.86%	
Cc1ccc(-c2nnc3sc(-c4ccncc4)nn23)cc1	0.058 µM [rising, full curve, poor fit]	-33%	0.00517 µM [falling, full curve, poor fit]
CC1CCN(S(=O)(=O)c2ccc(C(=O)OC(C)C(=O)N(C)C3CCCCC3)cc2)CC1 (stereo not given)	23.1 µM [rising, single point]	-21.7%	
Cc1ccc(C(=O)NCc2ccco2)o1	0.58 µM [falling, single point]	-9.39%	
CCCOc1ccc(/C=C2/C(=O)ON=C2C)cc1OCC	29.1 µM [rising, single point]	-0.709%	
Cc1csc2c(N3CCC(C(=O)O)CC3)ncnc12	5.8 µM [rising, full curve, poor fit]	23.3%	
CCC(C)Sc1nc2c(c(=O)[nH]c(=O)n2C)n1CCc1ccccc1 (stereo not given)	20.6 µM [falling, single point]	-40.9%	20.6 µM [falling, single point]

Compound	AC50 [1]	cell number change	AC50 [2]
Cc1cc(C)c(OCCN(C)C)c(Cl)c1	0.206 µM [falling, full curve]	-44.9%	0.411 µM [falling, full curve]
COc1cccc(C2=NOC(C(=O)NCc3ccccc3)C2)c1 (stereo not given)	4.61 µM [rising, full curve]	44.4%	9.2 µM [rising, partial curve, poor fit]
O=C(Nc1cccc(Cl)c1)Nc1cnccn1	3.55 µM [rising, full curve, poor fit]	23.4%	
COc1ccc(/C=C2\SC(=S)N(CCCC(=O)Nc3cc(C)on3)C2=O)cc1OC		24.2%	2.31 µM [rising, full curve, poor fit]
O=C(NCc1cccnc1)c1cccc(S(=O)(=O)N2CCCCC2)c1		-4.89%	
Cc1occc1-c1nnc(SCC(=O)NC(C)(C)C)n1C(C)c1ccccc1 (stereo not given)	6.51 µM [rising, single point]	28.7%	
CC(=O)NCCc1ccc(C(=O)CSc2nnc(C3CC3)n2C2CC2)cc1	29.1 µM [rising, single point]	22.8%	
Cc1ccc(S(=O)(=O)N(C)c2ccc(OCC(=O)O)cc2)cc1	0.00461 µM [falling, full curve, poor fit]	-16.5%	
COCCNC(=O)C1Cc2cc(S(=O)(=O)N3CCCC3)ccc2N1C(C)=O (stereo not given)	29.1 µM [rising, single point]	-12.2%	
CC(=O)Nc1cc(C(=O)NCc2ccco2)ccc1Sc1ccc(Cl)cc1		31.2%	13 µM [rising, single point]
CC(C)[n+]1ccn(C2=C([O-])c3ccccc3C(=O)/C2=N\S(=O)(=O)c2ccccc2)c1	0.92 µM [falling, partial curve]	-21.5%	
CN(Cc1ccccc1)C(=O)c1[nH]cnc1C(=O)Nc1nccs1	1.03 µM [falling, partial curve]	14.2%	
CCC(=O)Oc1ccc2c(C)cc(=O)oc2c1C	1.64 µM [falling, partial curve, poor fit]		
Cc1cccnc1NC1OC(=O)c2ccccc21 (stereo not given)	1.46 µM [falling, full curve, poor fit]	8.76%	
CC1CCCC(NC(=O)COC(=O)[C@@H](NC(=O)c2ccco2)C(C)C)C1C (stereo not given in full)	0.00517 µM [falling, full curve, poor fit]	-22%	
Cc1ccc(OCc2ccc(C(=O)Nc3ccc(S(N)(=O)=O)cc3)o2)cc1	3.26 µM [falling, full curve, poor fit]	-11.7%	0.651 µM [falling, single point]
COc1ccc(NC(=O)/C=C/c2cccc(Br)c2)cn1	0.731 µM [rising, single point]	-2.5%	
Cc1ccc(/C=N/N2CCN(Cc3ccc(C)cc3)CC2)cc1	29.1 µM [falling, single point]	-21.8%	
COc1ccc(NC(=O)CN2CCCN(S(=O)(=O)c3ccc(F)cc3)CC2)cc1	6.51 µM [falling, single point]	18.9%	

Compound	AC50 [1]	cell number change	AC50 [2]
CC(=O)c1ccc(N2CCN(C(=O)COc3ccc(F)cc3)CC2)c(F)c1		-14%	
O=C1CCCc2c1cc(C(=O)NC1CCSC1=O)c(=O)n2-c1ccccc1 (stereo not given)		-319%	18.4 µM [falling, partial curve]
Cc1ccc(CC2SC(=Nc3ccccc3)N(c3ccccc3)C2=O)cc1 (stereo not given)	18.4 µM [rising, partial curve]	36.3%	13 µM [rising, partial curve]
Cc1ccc(OCCC(=O)OCC(=O)C(C)(C)C)cc1	23.1 µM [rising, single point]	15.2%	
CC(C)(C)OC(=O)N1CCN(C(=O)c2[nH]cnc2C(=O)Nc2ccon2)CC1	29.1 µM [falling, single point]	20.2%	
COC(=O)c1ccc(-c2csc(NC(=O)c3ccc(S(=O)(=O)N4CCc5ccccc5C4)cc3)n2)cc1		-0.497%	
C=CCN1CCN(C(=O)c2c(-c3ccccc3)noc2C)CC1	18.4 µM [rising, single point]	0.276%	
C[C@@]12C(=O)N(CC3CCCO3)CC(=O)N1[C@H]1c3ccccc3OC[C@@H]1[C@@H]2c1ccccc1 (stereo not given in full)	0.164 µM [rising, full curve, poor fit]	-11.8%	
O=C(NCc1cccs1)c1nc2ncccn2n1	0.146 µM [falling, full curve, poor fit]	10.6%	
Cc1ccc(CNC(=O)c2ccccc2NS(C)(=O)=O)cc1		60.1%	
COc1ccc(C2=NCCn3nc4cc([N+](=O)[O-])ccc4c32)cc1	29.1 µM [falling, single point]	-29%	0.461 µM [falling, full curve, poor fit]
Cc1nn(CC(=O)Nc2ccccc2)c(=O)c2ccccc12	0.103 µM [rising, full curve, poor fit]	-2.83%	
Oc1ccc(/C=N/Nc2nc(N3CCCCCC3)nc(N3CCCCCC3)n2)c(O)c1	20.6 µM [falling, single point]	-60.2%	29.1 µM [falling, single point]
NC1=NC[C@@H](Cc2ccc(O)cc2)N1CCc1cccc2ccccc12	6.51 µM [falling, single point]	-5.89%	
C/C=C/C(=O)OCC(=O)Nc1cccc(F)c1	1.84 µM [falling, full curve]	-20.3%	
Cc1cc(OC(C)C(=O)N(Cc2ccco2)C2CCS(=O)(=O)C2)ccc1Cl (stereo not given)		17.3%	0.00461 µM [rising, full curve, poor fit]
Cc1[nH]c(=O)[nH]c(=O)c1S(=O)(=O)N1CCCC(C(=O)NCCc2ccc(Cl)cc2)C1 (stereo not given)	0.164 µM [falling, full curve, poor fit]	7.98%	
Oc1ccccc1C=NC(c1ccccc1)C(O)c1ccccc1 (stereo not given)	0.92 µM [falling, full curve, poor fit]	-16.5%	
Cn1c(=O)c2c(nc(CN3CCN(C(=O)c4ccco4)CC3)n2CCCc2ccccc2)n(C)c1=O	0.517 µM [rising, full curve]	37.6%	1.03 µM [rising, partial curve]
